Measurements taken from PMC8253768, “Structural plasticity of mumps virus nucleocapsids with cryo-EM structures” (Communications Biology, 2021).
These are yes or no findings as the source states them, for the method shown. Some binding calls cover weakened binding; strength is not graded here.

The chains behind the UniProt entries cited, without tags or fusion partners. Residues count along the entry.
UniProt Q77IS8, residues 1-374: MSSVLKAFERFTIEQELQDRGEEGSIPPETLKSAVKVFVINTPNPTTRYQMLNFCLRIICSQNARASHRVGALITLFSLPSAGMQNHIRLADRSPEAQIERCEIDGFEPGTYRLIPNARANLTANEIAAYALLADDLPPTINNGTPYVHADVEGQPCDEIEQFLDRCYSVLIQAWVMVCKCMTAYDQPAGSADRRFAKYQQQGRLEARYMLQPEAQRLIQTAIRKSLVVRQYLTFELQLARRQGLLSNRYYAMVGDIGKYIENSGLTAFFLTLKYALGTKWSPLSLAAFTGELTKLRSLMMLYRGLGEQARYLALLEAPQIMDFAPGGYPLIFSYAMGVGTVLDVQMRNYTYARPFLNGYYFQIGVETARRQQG

Molecular target: MuV nucleoprotein with C-arm and N-tail (375–549) truncated (mumps virus) (UniProt Q77IS8)
Assay: cryo-EM structure; helical reconstruction of filaments assembled from purified N_(Δarm), 2.9 Å; both purified

MuV nucleoprotein with C-arm and N-tail (375–549) truncated (from UniProt Q77IS8 1-374) (domain or fragment)
binding: binds
